Results from paper PMC8745339.
Results are given in words; binding and its absence hold for the method and conditions named. For part of these data: In cells and extracts the contact can be indirect. Some binding calls cover weakened binding; strength is not graded here. Sequences can lack the tags named with a protein.

How the values were obtained:
[1] = target: T1, GUN4-nLUC (Arabidopsis thaliana) (UniProt Q9LX31); test: split reporter; bimolecular luciferase complementation (BiLC); nLUC and cLUC fusions co-injected with Agrobacterium GV3101 into tobacco leaves, luciferase signal read with a CCD imager three days later
T1 sequence: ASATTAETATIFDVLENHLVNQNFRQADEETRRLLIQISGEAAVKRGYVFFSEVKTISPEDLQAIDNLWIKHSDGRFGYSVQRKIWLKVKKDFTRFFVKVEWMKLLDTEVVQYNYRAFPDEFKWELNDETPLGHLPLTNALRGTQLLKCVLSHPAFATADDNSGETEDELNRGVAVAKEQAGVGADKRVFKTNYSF

[2] = target: T2, GENOME UNCOUPLED 4 (GUN4), Gal4 BD fusion (Arabidopsis thaliana) (UniProt Q9LX31); test: two-hybrid; Gal4 system in yeast Y2H Gold; positive when colonies turned blue on SD/-Trp/-Leu/-Ade/-His/x-α-Gal plates
T2 sequence: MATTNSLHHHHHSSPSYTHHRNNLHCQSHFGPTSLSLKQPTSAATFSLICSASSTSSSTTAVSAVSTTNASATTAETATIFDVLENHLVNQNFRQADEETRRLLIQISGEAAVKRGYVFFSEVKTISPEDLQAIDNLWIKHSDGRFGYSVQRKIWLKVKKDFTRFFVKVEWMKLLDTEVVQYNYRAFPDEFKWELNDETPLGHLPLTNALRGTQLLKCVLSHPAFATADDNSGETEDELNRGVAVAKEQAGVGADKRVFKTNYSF

SRP43-cLUC (from UniProt O22265 57-373)
binding [1]: binds

B1: SIGNAL RECOGNITION PARTICLE 54 KDA SUBUNIT (SRP54), Gal4 AD fusion (protein, UniProt P37107 1-564)
chain: MEALQFSSVNRVPCTLSCTGNRRIKAAFSSAFTGGTINSASLSSSRNLSTREIWSWVKSKTVVGHGRYRRSQVRAEMFGQLTGGLEAAWSKLKGEEVLTKDNIAEPMRDIRRALLEADVSLPVVRRFVQSVSDQAVGMGVIRGVKPDQQLVKIVHDELVKLMGGEVSELQFAKSGPTVILLAGLQGVGKTTVCAKLACYLKKQGKSCMLIAGDVYRPAAIDQLVILGEQVGVPVYTAGTDVKPADIAKQGLKEAKKNNVDVVIMDTAGRLQIDKGMMDELKDVKKFLNPTEVLLVVDAMTGQEAAALVTTFNVEIGITGAILTKLDGDSRGGAALSVKEVSGKPIKLVGRGERMEDLEPFYPDRMAGRILGMGDVLSFVEKATEVMRQEDAEDLQKKIMSAKFDFNDFLKQTRAVAKMGSMTRVLGMIPGMGKVSPAQIREAEKNLLVMEAMIEVMTPEERERPELLAESPERRKRIAKDSGKTEQQVSALVAQIFQMRVKMKNLMGVMEGGSIPALSGLEDALKAEQKAPPGTARRKRKADSRKKFVESASSKPGPRGFGSGN
binding [2]: binds

B2: SRP54-cLUC (protein, UniProt P37107 76-564)
chain: EMFGQLTGGLEAAWSKLKGEEVLTKDNIAEPMRDIRRALLEADVSLPVVRRFVQSVSDQAVGMGVIRGVKPDQQLVKIVHDELVKLMGGEVSELQFAKSGPTVILLAGLQGVGKTTVCAKLACYLKKQGKSCMLIAGDVYRPAAIDQLVILGEQVGVPVYTAGTDVKPADIAKQGLKEAKKNNVDVVIMDTAGRLQIDKGMMDELKDVKKFLNPTEVLLVVDAMTGQEAAALVTTFNVEIGITGAILTKLDGDSRGGAALSVKEVSGKPIKLVGRGERMEDLEPFYPDRMAGRILGMGDVLSFVEKATEVMRQEDAEDLQKKIMSAKFDFNDFLKQTRAVAKMGSMTRVLGMIPGMGKVSPAQIREAEKNLLVMEAMIEVMTPEERERPELLAESPERRKRIAKDSGKTEQQVSALVAQIFQMRVKMKNLMGVMEGGSIPALSGLEDALKAEQKAPPGTARRKRKADSRKKFVESASSKPGPRGFGSGN
binding [1]: binds
